Some of the results follow. Values are raw readings; no control value is given beside them.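 In the initial screen, polymyxin B was used at a concentration that permeabilizes Salmonella's outer membrane but not its inner membrane. Maximum growth was set by DMSO wells with or without polymyxin B. Since plates varied, data were ranked per plate, and compounds giving the lowest OD600 advanced as hits.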
Tested on: Salmonella enterica serovar Typhimurium SL1344
Assay: bacterial growth OD600 after 18 h with compound and polymyxin B; higher = more bacterial growth (less inhibition)
Conditions: 50 µM, Mueller-Hinton broth

SMILES	bacterial growth OD600 (polymyxin B 0.75 µg/mL)	bacterial growth OD600 (polymyxin B 1 µg/mL)
COc1cc(C)ccc1OCc1nc(C(=O)N(C)Cc2ccc(F)cc2)co1	0.51	–
O=C(NCc1nc(NCCCc2ccccc2)c2ccccc2n1)c1c(F)cccc1Cl	0.753	–
CC(=O)c1ccccc1-c1ccc2c(c1)CC(CNC(=O)Cc1cccc(C)c1)O2 (stereo not given)	0.004	–
COc1ccccc1CNC(=O)c1c(OC)cc(=O)n2c1CCN(Cc1cc(C)cc(C)c1)CC2	0.744	–
COc1ccccc1-c1cn2c(C(=O)N(C)C(C)c3ccccn3)csc2n1 (stereo not given)	0.789	–
CCOc1ccc(CN2CCN(Cc3ccc(C)cc3)CC2CCO)cc1 (stereo not given)	–	0.814
OC1CCCN(CCNc2nc3nonc3nc2N2CCCCC2)C1 (stereo not given)	0.824	–
Cc1csc(CNC(=O)c2cc(COc3ccc4c(c3)OCO4)[nH]n2)n1	–	0.822
CCC1CN(C(=O)c2ccc(NCCc3cccc(C)n3)nc2)CCN1C(C)C (stereo not given)	0.764	–
COc1cc(CC2(CCC(=O)N3CCN(c4ccc(C)cc4C)CC3)CCC(=O)N2)ccc1F (stereo not given)	0.038	–
CCCCn1c(CN2C[C@@H](C)O[C@@H](C)C2)cnc1S(=O)(=O)C1CCCCC1	–	0.884
O=C(NC1CCCN(c2ncccn2)C1)c1sccc1Cl (stereo not given)	–	0.787
CCO[C@H]1[C@H](NC(=O)c2cccnc2)c2ccccc2C12CCN(C(=O)CCc1cnn(C)c1)CC2	0.831	–
Cc1ccccc1CC(C1CCN(C(=O)C(C)Oc2ccccc2)CC1)N(C)C(=O)Cn1cccn1 (stereo not given)	0.855	–
OCC1(Cc2ccccc2)CCN(Cc2ccccc2-c2ccco2)CC1	–	0.934
Cc1cc(CN(C)C(=O)c2cc(Cn3ccc4ccccc43)[nH]n2)on1	–	0.886
CC(NC(=O)CCC1(Cc2ccco2)CCC(=O)N1)c1cnn(-c2ccccc2)c1 (stereo not given)	0.849	–
Cc1ccc(CN2CCC(CN(C)Cc3c[nH]nc3-c3ccc(F)cc3)CC2)o1	–	0.843
C/C(=C\c1ccco1)CN1CCC(N2CCC(C(=O)NCc3ccccn3)CC2)CC1	–	0.893
COc1ccc(CNC(=O)CCC2CCCN(CCCC(F)(F)F)C2)c(OC)c1 (stereo not given)	–	1.11
CCn1cc(C(=O)N2CCCC(N3CCN(c4cccc(C(F)(F)F)c4)CC3)C2)cn1 (stereo not given)	–	0.913
CCOc1ccc2nc(CN3CC[C@@H](N4CCOCC4)[C@H](O)C3)ccc2c1	0.803	–
COc1ccc(-c2ccccc2NC(=O)C2CCCN(CC=C(C)C)C2)cc1 (stereo not given)	0.971	–
CN(Cc1cnc2ccccn12)C(=O)c1cc(COc2ccc(F)cc2F)on1	–	0.891
Cc1csc(CNC(=O)C2CCCN(C3CCN(C(C)C)CC3)C2)n1 (stereo not given)	0.881	–
CCCCNC(=O)N1CCCC(C(=O)c2cc(C)c(OC)c(C)c2)C1 (stereo not given)	–	0.928
COc1ccc(CCN2C(=O)O[C@@H]3CN(Cc4ccc(C)s4)C[C@@H]32)cc1	0.269	–
CC(CC1(C)CC1)N1CCC(N2CCC(C(=O)NCc3cccnc3)CC2)CC1 (stereo not given)	–	1.21
Cc1cc(C)n(CCNC(=O)CC2C(=O)NCCN2Cc2cccc3ccccc23)n1 (stereo not given)	–	0.964
COc1ccc(-c2noc(CN3CCC(C(O)CC(C)C)CC3)n2)cc1 (stereo not given)	–	0.826

Shown bar-delimited: part of the list above.
SMILES | bacterial growth OD600 (polymyxin B 0.75 µg/mL) | bacterial growth OD600 (polymyxin B 1 µg/mL)
COc1ccc(CNC(=O)CCC2CCCN(CCCC(F)(F)F)C2)c(OC)c1 (stereo not given) | – | 1.11
CCn1cc(C(=O)N2CCCC(N3CCN(c4cccc(C(F)(F)F)c4)CC3)C2)cn1 (stereo not given) | – | 0.913
CCOc1ccc2nc(CN3CC[C@@H](N4CCOCC4)[C@H](O)C3)ccc2c1 | 0.803 | –
COc1ccc(-c2ccccc2NC(=O)C2CCCN(CC=C(C)C)C2)cc1 (stereo not given) | 0.971 | –
CN(Cc1cnc2ccccn12)C(=O)c1cc(COc2ccc(F)cc2F)on1 | – | 0.891
Cc1csc(CNC(=O)C2CCCN(C3CCN(C(C)C)CC3)C2)n1 (stereo not given) | 0.881 | –
CCCCNC(=O)N1CCCC(C(=O)c2cc(C)c(OC)c(C)c2)C1 (stereo not given) | – | 0.928
COc1ccc(CCN2C(=O)O[C@@H]3CN(Cc4ccc(C)s4)C[C@@H]32)cc1 | 0.269 | –

— the supplement of paper PMC12889115
